The source of these data is patent publication US20220306751A1 (MYTHIC THERAPEUTICS, published 2022).

T1: CD123 protein (R&D Systems Catalog No. 301-R3-025/CF) (Homo sapiens (Human)) (UniProt P26951)
T1 sequence: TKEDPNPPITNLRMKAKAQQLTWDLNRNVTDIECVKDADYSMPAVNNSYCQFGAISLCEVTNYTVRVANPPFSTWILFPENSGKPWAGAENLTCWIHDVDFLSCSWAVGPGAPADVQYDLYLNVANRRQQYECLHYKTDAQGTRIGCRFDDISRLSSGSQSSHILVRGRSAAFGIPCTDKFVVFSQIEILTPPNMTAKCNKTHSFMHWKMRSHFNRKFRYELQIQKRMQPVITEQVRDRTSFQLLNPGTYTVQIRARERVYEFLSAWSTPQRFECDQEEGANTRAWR

B1: MYT5448 (antibody, V domains shown)
VH: EVQLLESGGGLVQPGGSLRLSCAVSDYSIHSGYYWNWIRQAPGKKLEWMGYISYDGSNNYNPSLKNGRITISRDTSKNTFYLQMNSLRAEDTAVYYCARGEGFYFDSWGQGTLVTVSS
VL: EIVLTQSPGTLSLSPGERATLSCKSSQSLFFGSTQKNYLAWYQQKPGQAPRLLIYWASTRESGIPDRFSGSGSGTDFTLTISRLEPEDFAVYYCQQYYNYPWTFGQGTKLEIK
B2: MYT5466 (antibody, V domains shown)
VH: B1 VH with H30T, P62H
VL: B1 VL
B3: MYT5488 (antibody, V domains shown)
VH: B1 VH with H30T
VL: B1 VL with S33H
B4: MYT5505 (antibody, V domains shown)
VH: B1 VH with H30T
VL: B1 VL with Y97H
B5: MYT5485 (antibody, V domains shown)
VH: B1 VH with H30T
VL: B1 VL with F30H
B6: MYT5504 (antibody, V domains shown)
VH: B1 VH with H30T
VL: B1 VL with Q96H
B7: MYT5456 (antibody, V domains shown)
VH: B1 VH with H30T, I52H
VL: B1 VL
B8: MYT5467 (antibody, V domains shown)
VH: B1 VH with H30T, S63H
VL: B1 VL
B9: MYT5481 (antibody, V domains shown)
VH: B1 VH with H30T, S107H
VL: B1 VL
B10: MYT5486 (antibody, V domains shown)
VH: B1 VH with H30T
VL: B1 VL with F31H
B11: MYT5460 (antibody, V domains shown)
VH: B1 VH with H30T, G56H
VL: B1 VL
B12: MYT5470 (antibody, V domains shown)
VH: B1 VH with H30T, N66H
VL: B1 VL
B13: MYT5509 (antibody, V domains shown)
VH: B1 VH with H30T
VL: B1 VL with P101H
B14: MYT5459 (antibody, V domains shown)
VH: B1 VH with H30T, D55H
VL: B1 VL
B15: MYT5479 (antibody, V domains shown)
VH: B1 VH with H30T, F105H
VL: B1 VL
B16: MYT5489 (antibody, V domains shown)
VH: B1 VH with H30T
VL: B1 VL with T34H
B17: MYT5463 (antibody, V domains shown)
VH: B1 VH with H30T, N59H
VL: B1 VL
B18: MYT5487 (antibody, V domains shown)
VH: B1 VH with H30T
VL: B1 VL with G32H
B19: MYT5462 (antibody, V domains shown)
VH: B1 VH with H30T, N58H
VL: B1 VL
B20: MYT5493 (antibody, V domains shown)
VH: B1 VH with H30T
VL: B1 VL with Y38H
B21: MYT5503 (antibody, V domains shown)
VH: B1 VH with H30T
VL: B1 VL with Q95H
B22: MYT5484 (antibody, V domains shown)
VH: B1 VH with H30T
VL: B1 VL with L29H
B23: MYT5471 (antibody, V domains shown)
VH: B1 VH with H30T, G67H
VL: B1 VL
B24: MYT5468 (antibody, V domains shown)
VH: B1 VH with H30T, L64H
VL: B1 VL
B25: MYT5469 (antibody, V domains shown)
VH: B1 VH with H30T, K65H
VL: B1 VL
B26: MYT5465 (antibody, V domains shown)
VH: B1 VH with H30T, N61H
VL: B1 VL
B27: MYT5451 (antibody, V domains shown)
VH: B1 VH with H30T, Y33H
VL: B1 VL
B28: MYT5461 (antibody, V domains shown)
VH: B1 VH with H30T, S57H
VL: B1 VL
B29: MYT5449 (antibody, V domains shown)
VH: B1 VH with H30T, S31H
VL: B1 VL
B30: MYT5496 (antibody, V domains shown)
VH: B1 VH with H30T
VL: B1 VL with W56H
B31: MYT5480 (antibody, V domains shown)
VH: B1 VH with H30T, D106H
VL: B1 VL
B32: MYT5464 (antibody, V domains shown)
VH: B1 VH with H30T, Y60H
VL: B1 VL

Residue numbers refer to the chain shown, from its start. These are yes or no findings as the source states them, for the method shown. Some results given as binding are weak or reduced against the parent protein; the word gives no strength.

For this test, the target named is T1, CD123 protein (R&D Systems Catalog No. 301-R3-025/CF) (Homo sapiens (Human)). In words: BLI, IgG on anti-human Fc sensor, 50 nM CD123, pH 7.4 and pH 5.4. On the technique in general: BLI is a label-free optical method that tracks binding on a fibre tip over time.
As to B1, the binding result is listed as “binds”.

Turning to B2, the binding entry is listed as “binds”.

With B3, the binding result is given as “binds”.

In the case of B4, the binding result was “binds”.

On to B5, for which the binding result is given as “binds”.

Consider B6, for which the binding result is reported as “binds”.

For B7, the binding entry is “binds”.

Take B8: the binding entry is “binds”.

Consider B9, for which the binding entry is given as “binds”.

As for B10, the binding entry is on record as “binds”.

For B11, the binding entry is listed as “binds”.

Regarding B12, the binding entry is “binds”.

In the case of B13, the binding result is given as “binds”.

On to B14, for which the binding result is recorded as “binds”.

Regarding B15, the binding entry was “binds”.

On to B16, for which the binding result is “binds”.

Regarding B17, the binding result is recorded as “binds”.

B18: the binding result is listed as “binds”.

B19: the binding result is recorded as “binds”.

With B20, the binding result is “binds”.

Regarding B21, the binding result is reported as “binds”.

With B22, the binding entry was “binds”.

On to B23, for which the binding result is “binds”.

As for B24, the binding result is “binds”.

For B25, the binding entry was “binds”.

Turning to B26, the binding result is listed as “binds”.

For B27, the binding result is “binds”.

As to B28, the binding result is “binds”.

On to B29, for which the binding entry is “binds”.

Turning to B30, the binding entry is “binds”.

For the molecule B31, the binding result is listed as “binds”.

On to B32, for which the binding result is recorded as “binds”.
